Reference: PubChem BioAssay AID1508588 (Peter MacCallum Cancer Centre, 2020)

Screen: 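Genome-wide search for knock-downs that heighten vemurafenib action in melanoma cells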 (primary screen)
System: human WM266.4 melanoma cells (BRAF V600 mutant)
Reagent: siRNA pool against human genes, 40 nM
Time to read-out: 96 h from transfection to read-out
Challenge: vemurafenib 300 nM (about IC25), added 48 h after transfection, for 48 h; comparison arm got DMSO vehicle only
Read-out: 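Cell gain (DAPI nuclei at end minus before drug, mean of two replicates) and medium lactate by absorbance per cell, both as ratio to non-targeting siRNA, also grouped into fold-change classes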
Scale: cell gain with vemurafenib: higher = more cell gain than with non-targeting siRNA; lactate per cell with vemurafenib: higher = more lactate made per cell
Rule for the call: 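Enhancement is called by pairing each knock-down's vehicle-arm and drug-arm fold-change classes for viability or glycolysis; which class combinations qualify is not given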
Calls: active = enhances vemurafenib effect; inactive = no enhancement seen
The deposit covers about 18,000 reagents; below is a random part of them. 790 of all reagents (4.4%) count as active. 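Calls rest on a combination of fold-change classes in drug and vehicle arms, not all shown here.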 Reagent sequences are not shown.

gene | cell gain with vemurafenib | lactate per cell with vemurafenib | Outcome
PIK3R4 (phosphoinositide-3-kinase regulatory subunit 4) | 0.85 | 0.64 | inactive
AGMAT (agmatinase (putative)) | 1.04 | 0.96 | inactive
DOK7 (docking protein 7) | 0.85 | 0.96 | inactive
BUD31 (BUD31 spliceosome associated protein) | 0.95 | 0.38 | inactive
ZNF660 (zinc finger protein 660) | 0.85 | 0.94 | inactive
QRFPR (pyroglutamylated RFamide peptide receptor) | 0.42 | 1.1 | inactive
H3C3 (H3 clustered histone 3) | 0.18 | 1.77 | inactive
DACT1 (dishevelled binding antagonist of beta catenin 1) | 0.69 | 1.24 | inactive
MUC1 (mucin 1, cell surface associated) | 1.18 | 0.9 | inactive
ARHGEF4 (Rho guanine nucleotide exchange factor 4) | 0.5 | 1.02 | inactive
CCR5 (C-C motif chemokine receptor 5) | 0.35 | 0.76 | inactive
NEK1 (NIMA related kinase 1) | 0.32 | 2.38 | inactive
ATL3 (atlastin GTPase 3) | 0.45 | 0.15 | active
AMMECR1L (AMMECR1 like) | 0.86 | 0.42 | inactive
SLCO3A1 | 0.23 | 1.58 | inactive
IFIT3 (interferon induced protein with tetratricopeptide repeats 3) | 0.8 | 1.21 | inactive
SERPING1 (serpin family G member 1) | 0.03 | 1.71 | inactive
PCDHA3 (protocadherin alpha 3) | 0.7 | 1.05 | inactive
UBAC1 (UBA domain containing 1) | 0.76 | 1.02 | inactive
DUX5 (double homeobox 5) | 0.78 | 1.1 | inactive
SLC25A18 | 0.62 | 1.43 | inactive
FYRD1 (FYRN and FYRC domains INO80 complex interactor 1) | 0.47 | 1.46 | inactive
VPS26C (VPS26 endosomal protein sorting factor C) | 0.52 | 0.74 | inactive
CCDC17 (coiled-coil domain containing 17) | 0.27 | 1.02 | inactive
GGPS1 (geranylgeranyl diphosphate synthase 1) | 1.04 | 0.49 | inactive
PRR34 (PRR34 long non-coding RNA) | 0.76 | 0.65 | inactive
INSC (INSC spindle orientation adaptor protein) | 0.92 | 0.58 | inactive
FBXW11 (F-box and WD repeat domain containing 11) | 0.68 | 0.51 | inactive
TPR (translocated promoter region, nuclear basket protein) | 0.8 | 0.45 | active
MON1B (MON1 vesicular trafficking associated B) | 0.52 | 1 | inactive
LIPM (lipase family member M) | 0.93 | 0.51 | inactive
PDZD4 (PDZ domain containing 4) | 1.02 | 0.8 | inactive
SERPINA4 (serpin family A member 4) | 0.45 | 1.56 | inactive
GABRA1 (gamma-aminobutyric acid type A receptor subunit alpha1) | 0.64 | 0.99 | inactive
PPP1R12C (protein phosphatase 1 regulatory subunit 12C) | 0.98 | 0.69 | inactive
FXN (frataxin) | 1.01 | 1.01 | inactive
TMEM74 (transmembrane protein 74) | 0.37 | 1 | inactive
KLF6 (KLF transcription factor 6) | 0.09 | 1.38 | inactive
ARID3A (AT-rich interaction domain 3A) | 0.88 | 0.9 | inactive
CASR (calcium sensing receptor) | 0.95 | 0.83 | inactive
HDHD3 (haloacid dehalogenase like hydrolase domain containing 3) | 0.94 | 0.26 | inactive
SH3GL2 (SH3 domain containing GRB2 like 2, endophilin A1) | 1.48 | 0.62 | inactive
KLHL3 (kelch like family member 3) | 0.63 | 0.77 | inactive
AATF (apoptosis antagonizing transcription factor) | 0.79 | 0.73 | inactive
BAIAP2L1 (BAR/IMD domain containing adaptor protein 2 like 1) | 0.36 | 0.48 | inactive
PLCE1 (phospholipase C epsilon 1) | 0.6 | 0.78 | inactive
TMEM168 (transmembrane protein 168) | 0.77 | 0.77 | inactive
ARHGAP4 (Rho GTPase activating protein 4) | 0.88 | 0.96 | inactive
ANKRD27 (ankyrin repeat domain 27) | 0.56 | 0.64 | inactive
PRSS53 (serine protease 53) | 0.47 | 1.2 | inactive
CTBS (chitobiase) | 0.59 | 0.82 | inactive
GIT1 (GIT ArfGAP 1) | 0.5 | 0.78 | inactive
ZNF438 (zinc finger protein 438) | 0.6 | 0.48 | inactive
MAFK (MAF bZIP transcription factor K) | 1.03 | 0.93 | inactive
SLC22A14 | 0.44 | 0.48 | active
CEBPB (CCAAT enhancer binding protein beta) | 0.88 | 0.48 | inactive
SGIP1 (SH3GL interacting endocytic adaptor 1) | 1.12 | 0.42 | inactive
IKZF2 (IKAROS family zinc finger 2) | 0.84 | 0.86 | inactive
TPSD1 (tryptase delta 1) | 0.83 | 0.97 | inactive
SERPINI1 (serpin family I member 1) | -0.05 | 2 | inactive
GGCX (gamma-glutamyl carboxylase) | 0.81 | 0.48 | inactive
ANKRD42 (ankyrin repeat domain 42) | 0.77 | 0.43 | inactive
BPIFA2 (BPI fold containing family A member 2) | 0.33 | 2 | inactive
DAB1 (DAB adaptor protein 1) | 1.25 | 0.44 | inactive
LOC653978 (retired record) | 0.28 | 1.25 | inactive
PTCD1 (pentatricopeptide repeat domain 1) | 1.29 | 0.56 | inactive
BFSP1 (beaded filament structural protein 1) | 0.43 | 0.86 | inactive
RNF39 (ring finger protein 39) | 1.02 | 0.72 | inactive
SLC14A2 | 0.35 | 1.06 | inactive
CCL17 (C-C motif chemokine ligand 17) | -0.05 | 1.52 | inactive
FAM217B (family with sequence similarity 217 member B) | 0.51 | 0.13 | active
PNMA5 (PNMA family member 5) | 0.41 | 1.22 | inactive
GTPBP6 (GTP binding protein 6) | 0.3 | 0.92 | inactive
TAF8 (TATA-box binding protein associated factor 8) | 0.31 | 2.19 | inactive
PPM1J (protein phosphatase, Mg2+/Mn2+ dependent 1J) | 0.48 | 0.31 | inactive
SKIL (SKI like proto-oncogene) | 0.61 | 1.15 | inactive
UBA5 (ubiquitin like modifier activating enzyme 5) | 0.82 | 0.54 | inactive
GTF2F2 (general transcription factor IIF subunit 2) | 1.12 | 0.4 | inactive
OR2T11 (olfactory receptor family 2 subfamily T member 11) | 0.53 | 0.7 | inactive
HOXC13 (homeobox C13) | 0.37 | 0.7 | inactive
PARP15 (poly(ADP-ribose) polymerase family member 15) | 0.88 | 0.56 | inactive
PCDHA6 (protocadherin alpha 6) | 0.93 | 0.86 | inactive
MKRN2 (makorin ring finger protein 2) | 0.75 | 0.9 | inactive
HYDIN (HYDIN axonemal central pair apparatus protein) | 0.68 | 0.48 | inactive

Called active, of those listed so far:
gene | cell gain with vemurafenib | lactate per cell with vemurafenib | Outcome
ATL3 (atlastin GTPase 3) | 0.45 | 0.15 | active
TPR (translocated promoter region, nuclear basket protein) | 0.8 | 0.45 | active
SLC22A14 | 0.44 | 0.48 | active
FAM217B (family with sequence similarity 217 member B) | 0.51 | 0.13 | active
